Hit rate of the full screen: of about 330,000 compounds, about 7,700 (2.3%) were called active. The shares of active, inactive and inconclusive entries below differ from those in the screen. Calls come from the whole dose curve; as a rule, active = well fitted inhibition curve with a large enough effect; inconclusive = small, poorly fitted or top-dose-only effect, or effect the other way; inactive = flat fitted curve, though single readings scatter. Potencies of inconclusive entries are doubtful fits and often do not repeat.
assay: qHTS screen for small molecules that inhibit ELG1-dependent DNA repair in human embryonic kidney (HEK293T) cells expressing luciferase-tagged ELG1; conditions: HEK293T ELG1-luciferase reporter, luminescence, 16 h, DNA damage induced by 5-fluorouridine; series mostly up to 46.1 µM; note: nearly all actives have a fitted effect of over 55% in size
Summary of the method: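 Overnight (16 hr) co-exposure of 2,000 cells/well to 5-fluorouridine and compound at 37 °C preceded detection. Luciferase was quantified via ONE-Glo luminescence; loss of signal denotes inhibition.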
Potency is the fitted concentration of half-maximal effect.

SMILES	Potency
COc1cc(NC(=O)CCn2c(=S)oc3ccccc32)cc(OC)c1OC	inactive
CN(C(=S)Nc1ccc(F)cc1)C(c1ccccc1)c1ccccc1	inconclusive: 23.1 µM [inhibitor, partial curve, poor fit]
COc1cccc(NC(=S)N(CCN(C)C)C(C)c2ccco2)c1 (centres undefined)	inactive
CCNc1nc(NC(C)C)nc(Oc2ccc(OCCOc3ccc(C)cc3)nn2)n1	inconclusive: 11.6 µM [activator, partial curve]
Cc1ccccc1/C=C/C(=O)N1CCOCC1	inconclusive: 29.1 µM [activator, single point]
O=C(CSc1nnc(-c2ccncc2)n1Cc1ccco1)Nc1nc(-c2ccccc2)cs1	inconclusive: 3.26 µM [inhibitor, single point]
Cc1noc(C)c1S(=O)(=O)N1CCCC(C(=O)NCCC2=CCCCC2)C1 (centres undefined)	inactive
COc1cc(OC)cc(C(=O)Nc2cccc(N3CCCC3)c2)c1	inconclusive: 23.1 µM [inhibitor, single point]
O=C(COc1cccnc1[N+](=O)[O-])Nc1cccc(Br)c1	inconclusive: 9.2 µM [activator, partial curve]
CC(C)(C)NC(=O)NC(=O)COc1ccc(Br)cc1Br	inconclusive: 4.11 µM [activator, partial curve]
Oc1ccc(Br)cc1-c1cc(-c2ccccc2F)[nH]n1	inactive
O=C(Nc1cccc2c1CCCC2)c1ccc(Cl)c([N+](=O)[O-])c1	inactive
CC(/C=N/NC(=O)c1cccnc1)=C\c1ccco1	inconclusive: 29.1 µM [activator, single point]
CCC(C)(C)NC(=O)C(c1ccc(C)cc1)N(Cc1ccco1)C(=O)Cn1nnc2ccccc21 (centres undefined)	inactive
Cc1ccc(Nc2nnc(SC/C(O)=C(\C#N)c3nc4ccccc4[nH]3)s2)c(C)c1	inactive
NC(=O)c1ccccc1OCC(=O)NS(=O)(=O)c1ccc(Cl)cc1	inactive
CCOc1ccc(NC(=O)c2ccc(NC(=S)NC3CC3)cc2)cc1	inconclusive: 25.9 µM [activator, single point]
CCCCNC(=O)c1c[nH]c2ccc(S(=O)(=O)Nc3ccc(OCC)cc3)cc2c1=O	inconclusive: 29.1 µM [inhibitor, single point]
Cc1cc(NC(=O)c2cccc(Oc3ccccc3)c2)n[nH]1	inconclusive: 9.2 µM [activator, partial curve]
Cc1cc(C(=O)N/N=C/c2cccc(OC(=O)c3ccco3)c2)n[nH]1	inconclusive: 20.6 µM [activator, single point]
CCSc1nnc(NC(=O)C(CC)(C(F)(F)F)C(F)(F)F)s1	inconclusive: 7.31 µM [inhibitor, partial curve]
CN(Cc1ccco1)c1ncnc2ccc(-c3ccc4c(c3)OCO4)cc12	inconclusive: 29.1 µM [inhibitor, single point]
O=c1c2c3c(sc2n2cnnc2n1CCc1ccccc1)CCCC3	inconclusive: 29.1 µM [inhibitor, single point]
CCCCN1C(=S)NC[C@@H]1Cc1ccccc1	inactive
N=c1n(CCc2ccccc2)c2ccccc2n1Cc1ccccc1F	inconclusive: 16.4 µM [inhibitor, partial curve, poor fit]

SMILES	Potency
CCCCC12CN3CC(C)(CN(C1)C3c1ccc([N+](=O)[O-])o1)C2=O (centres undefined)	inactive
CC(C)Cn1c(N)c(C(=O)COC(=O)c2ccccc2C(=O)c2ccccc2)c(=O)n(C)c1=O	active: 16.4 µM
OCC(Cc1ccc2c(c1)OCO2)C(CO)Cc1ccc2c(c1)OCO2 (centres undefined)	inconclusive: 7.3 µM [inhibitor, partial curve, poor fit]
CCCc1cc(Nc2cccc(OCC)c2)n2ncnc2n1	inconclusive: 9.2 µM [activator, partial curve, poor fit]
CCN(CC)c1nc(Nc2ccccc2)nc(Oc2ccc(C(=O)OC)cc2)n1	inconclusive: 2.91 µM [inhibitor, partial curve, poor fit]
FC(F)Oc1ccc(NC(=S)NC2CCCCCCC2)cc1	inactive
Cc1ccsc1C(=O)NNC(=S)NC1CCCCC1	inactive
O=c1c(C=NCCN2CCNCC2)c(-c2ccccc2)[nH]n1-c1ccc([N+](=O)[O-])cc1	inconclusive: 18.3 µM [activator, partial curve]
Cc1ccc(NC(=O)c2ccc(S(=O)(=O)NCc3ccco3)cc2)cc1	inconclusive: 16.4 µM [activator, partial curve]
O=C(COC(=O)Cc1ccc(S(=O)(=O)N2CCOCC2)s1)Nc1ccccc1Cl	inactive
COC(=O)c1cc(S(=O)(=O)NC2CCCCC2)cn1C	inconclusive: 29.1 µM [activator, partial curve, poor fit]
CCN(c1ccccc1)S(=O)(=O)c1ccc(C(=O)Nc2ccccc2OC)cc1	inconclusive: 20.6 µM [inhibitor, partial curve]
CCCn1c(N)c(C(=O)COC(=O)CNC(=O)c2ccccc2OCC)c(=O)[nH]c1=O	inactive
c1ccc(OCCSc2nnnn2C2CCCCC2)cc1	inconclusive: 4.47 µM [activator, partial curve]
CC(/C=N/NC(=O)Cc1cccs1)=C\c1ccco1	inconclusive: 13 µM [activator, partial curve]
Cc1ccc2sc(NNC(=O)C3COc4ccccc4O3)nc2c1C (centres undefined)	inactive
CCN(CC)S(=O)(=O)c1ccc2c(c1)nc(CCC(=O)OCC(=O)Nc1c(F)cccc1F)n2C	inconclusive: 3.26 µM [inhibitor, partial curve, poor fit]
COc1ccc(C(=O)NNC(=S)NC(=O)c2ccco2)cc1	inactive
COc1ccc(-n2c(SC)nc3sc4c(c3c2=O)CCN(C)C4)cc1	inactive
Cc1c(C)n(C)c2ccc(C(=O)NCCCN3CCCCC3)cc12	inactive
CC(C)Cc1ccc(CN2CCCC(NC(=O)c3ccoc3)C2)cc1 (centres undefined)	inactive
CCC(C)NC(=O)Cn1cc(S(=O)(=O)N2CCN(c3ccccc3F)CC2)c2ccccc2c1=O (centres undefined)	inconclusive: 13 µM [inhibitor, single point]
COc1cc(NC(=O)c2nccn2C)cc(C(=O)Nc2cccc(C(F)(F)F)c2)c1	inactive
CC1(c2ccccc2)CC(C)(C)N2C(=O)C3(C(C#N)=C(N)Oc4cc(O)ccc43)c3cccc1c32 (centres undefined)	inactive
COc1ccccc1CN(Cc1nc2ccccc2c(=O)[nH]1)C(=O)Nc1ccccc1C	inconclusive: 29.1 µM [inhibitor, single point]

SMILES	Potency
CC(C)c1ccc(/C=N/Nc2ccc(C(=O)O)cc2)cc1	inconclusive: 0.0184 µM [activator, full curve, poor fit]
CCOC(=O)C1CCN(C(=O)COC(=O)c2nn(C)c(=O)c3ccccc23)CC1	inactive
Nc1nonc1-c1nc2ccccc2n1CC(=O)N1CCN(c2ccc(F)cc2)CC1	inactive
COc1ccc(OCCOCCOc2ccc(C)cc2[N+](=O)[O-])cc1	inactive
O=C(N/N=C/c1ccc[nH]1)c1ccccc1OCc1ccccc1Cl	inconclusive: 29.1 µM [inhibitor, single point]
O=C(c1ccco1)N1CCN(C(=O)c2sccc2-c2ccccc2)CC1	inactive
COc1ccccc1NC(=O)CCc1nnc2ccc(N3CCN(C)CC3)nn12	inactive
Cc1cccc2cc(CN(CCCO)C(=O)Nc3ccc(Cl)cc3)c(=O)[nH]c12	active: 20.6 µM
O=C(NCc1csc(-c2cccs2)n1)c1ccccc1	inconclusive: 20.6 µM [activator, single point]
O=C1c2ccc(Oc3ccc4c(c3)C(=O)N(CCCCO)C4=O)cc2C(=O)N1CCCCO	inconclusive: 29.1 µM [inhibitor, single point]
CCOC(=O)c1c(C2CC2)csc1NC(=O)COC(=O)c1cc(OC)c(OC)cc1[N+](=O)[O-]	active: 13 µM
Cc1ccc(Nc2nc(N/N=C/c3c[nH]c4ccccc34)nc(N3CCOCC3)n2)cc1	active: 16.4 µM
COc1ccc(C2=NCCn3nc4cc(C(F)(F)F)ccc4c32)cc1	inconclusive: 7.94 µM [activator, single point]
CC(=O)c1ccc(NC(=O)CNCc2cccs2)cc1	inconclusive: 20.6 µM [activator, partial curve]
OCC1(CCc2ccccc2)CCN(Cc2ccc(OC(F)F)cc2)CC1	inconclusive: 29.1 µM [inhibitor, single point]
Cc1cc(NC(=O)C2CCCCC2)n(-c2nc3ccccc3[nH]2)n1	inconclusive: 23.1 µM [inhibitor, partial curve]
CSc1ccccc1NC(=O)C1CCCO1 (centres undefined)	inconclusive: 32.6 µM [activator, partial curve, poor fit]
CCNc1nc2ccccc2[nH]1	inactive
CCCNC(=O)c1cc(-c2ccc(OC)cc2)on1	inconclusive: 4.61 µM [activator, partial curve]
O=C1COc2ccc(C(=O)COC(=O)/C=C/c3cccc(F)c3)cc2N1	active: 1.83 µM
COC(=O)c1cc(OC)c(OC)cc1NCC(=O)Nc1ccc(C)cc1	inactive
O=[N+]1C2=C(CCCC2)N([O-])C12CCCC2	inactive
O=c1c2cc(-c3ccccc3)sc2ncn1/N=C/c1ccco1	inconclusive: 23.1 µM [activator, partial curve]
O=S(=O)(c1ccc(Cl)cc1)N1CCN(C(=S)Nc2ccc(F)c(Cl)c2)CC1	inconclusive: 29.1 µM [inhibitor, single point]

An excerpt of these results, in markdown:

| SMILES | Potency |
| --- | --- |
| CCCc1cc(Nc2cccc(OCC)c2)n2ncnc2n1 | inconclusive: 9.2 µM [activator, partial curve, poor fit] |
| CCN(CC)c1nc(Nc2ccccc2)nc(Oc2ccc(C(=O)OC)cc2)n1 | inconclusive: 2.91 µM [inhibitor, partial curve, poor fit] |
| FC(F)Oc1ccc(NC(=S)NC2CCCCCCC2)cc1 | inactive |

From PubChem BioAssay AID504467 (National Center for Advancing Translational Sciences (NCATS), 2011)
